Assay results reported in PubChem BioAssay AID504327 (National Center for Advancing Translational Sciences (NCATS), 2011).
The whole screen tested about 390,000 compounds, of which about 820 (0.21%) were called active. The inconclusive results got no clear call from the source; some entries with a clear call stand among them for comparison. Calls follow the shape of the dose curve; as a rule, active = well fitted inhibition curve with a large enough effect; inconclusive = small, poorly fitted or top-dose-only effect, or another doubt; inactive = no such curve, though single readings can be large or run the other way. Potencies of inconclusive entries are doubtful fits and often do not repeat.

The chains behind the UniProt entries cited, without tags or fusion partners.
UniProt Q92830, whole entry, looked up: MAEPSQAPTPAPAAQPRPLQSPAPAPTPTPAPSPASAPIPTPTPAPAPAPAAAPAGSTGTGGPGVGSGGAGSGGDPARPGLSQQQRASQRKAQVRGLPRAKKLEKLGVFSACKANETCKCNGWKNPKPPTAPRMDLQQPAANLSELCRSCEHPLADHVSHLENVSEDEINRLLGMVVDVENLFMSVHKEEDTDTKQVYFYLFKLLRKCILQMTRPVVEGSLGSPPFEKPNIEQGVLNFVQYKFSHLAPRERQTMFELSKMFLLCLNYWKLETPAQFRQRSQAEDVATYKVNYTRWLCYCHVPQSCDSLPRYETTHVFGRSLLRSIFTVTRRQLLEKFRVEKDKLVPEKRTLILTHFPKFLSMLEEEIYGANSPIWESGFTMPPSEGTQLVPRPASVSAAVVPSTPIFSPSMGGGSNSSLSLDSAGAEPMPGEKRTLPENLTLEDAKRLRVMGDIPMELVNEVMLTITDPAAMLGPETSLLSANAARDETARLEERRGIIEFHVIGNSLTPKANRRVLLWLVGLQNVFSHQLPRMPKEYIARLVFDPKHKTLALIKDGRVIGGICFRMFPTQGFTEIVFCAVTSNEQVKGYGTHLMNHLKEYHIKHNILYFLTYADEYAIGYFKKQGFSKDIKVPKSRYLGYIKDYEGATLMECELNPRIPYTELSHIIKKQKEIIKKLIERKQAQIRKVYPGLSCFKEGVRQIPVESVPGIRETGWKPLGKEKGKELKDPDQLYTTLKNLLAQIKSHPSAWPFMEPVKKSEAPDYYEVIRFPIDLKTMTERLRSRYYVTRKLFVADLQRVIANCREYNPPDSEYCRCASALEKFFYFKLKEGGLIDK

molecular target: Histone acetyltransferase KAT2A (Homo sapiens) (UniProt Q92830); assay: qHTS Assay for Inhibitors of GCN5L2; settings: GCN5L2 HAT assay, ThioGlo1 CoA-SH fluorescence; series mostly up to 58.9 µM
Method in brief: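 Free CoA generated was detected with ThioGlo1 (50uM) fluorescence at Ex340nm/Em540nm, read immediately and after 20 min at room temperature. Enzyme, 20 nM in HEPES pH 7.5 buffer, saw compounds 15 min before adding 75uM H3(1-25) peptide and 70uM acetyl-CoA.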
Potency is read from the fitted curve at half-maximal effect.

SMILES | Potency
O=C(/C=C/c1cccs1)NC(=S)NNC(=O)c1ccccc1O | inactive
Oc1cc2c(cc1O)C1c3ccc(O)c(O)c3OCC1(O)C2 (stereo not given) | inconclusive: 39.8 µM [inhibitor, single point]
Cc1noc(NS(=O)(=O)c2cccc3c(N(C)C)cccc23)c1C | inconclusive: 28.2 µM [inhibitor, partial curve]
Cc1ccc(NC(=O)C2CCCN(S(=O)(=O)c3cccs3)C2)cc1 (stereo not given) | inconclusive: 0.794 µM [inhibitor, full curve, poor fit]
O=C(NCCCN1CCN(c2cccc(Cl)c2)CC1)c1ccc2nc(Cc3ccccc3)oc2c1 | inconclusive: 3.16 µM [inhibitor, partial curve]
Cc1ccc(S(=O)(=O)Oc2ccc(C3C4=C(CCCC4=O)OC4=C3C(=O)CCC4)cc2)cc1 | inactive
COc1cc(/C=N\NC(=O)C2C(=O)NCC2c2ccccc2)cc(OC)c1O (stereo not given) | inconclusive: 6.31 µM [inhibitor, single point]
O=C(C1CCC1)N1CCN(S(=O)(=O)c2ccc(F)cc2)CC1 | inconclusive: 28.2 µM [inhibitor, partial curve]
COC(=O)CC/C(O)=C1\C(=O)CC(C)(C)CC1=NCCc1nc2ccccc2[nH]1 | inactive
O=C(CCc1nnc(CCc2c[nH]c3ccccc23)o1)NC1CCC1 | inactive
CCn1c2ccccc2c2nc3cc(S(=O)(=O)N4CCOCC4)ccc3nc21 | inconclusive: 20 µM [inhibitor, partial curve]
COc1ccc(-c2coc3cc(O)ccc3c2=O)c(O)c1O | inconclusive: 39.8 µM [inhibitor, single point]
CC(=O)c1c(OC(=O)c2cccc(Cl)c2)c2ccccc2n1C | inconclusive: 28.2 µM [inhibitor, single point]
CCC(C)NC(=O)COC(=O)c1csc2c1CCCC2 (stereo not given) | inconclusive: 39.8 µM [inhibitor, single point]
COCCCNC(=O)CSc1nc2nc(C)c(Cc3ccccc3Cl)c(C)n2n1 | inactive
CCOc1cc([N+](=O)[O-])cc(/C=N/NC(=O)c2c(-c3ccccc3)noc2C)c1O | inconclusive: 22.4 µM [inhibitor, partial curve]
CCn1c(SCC(=O)NCc2ccccc2)nnc1-c1ccccc1O | inconclusive: 0.1 µM [inhibitor, partial curve, poor fit]
Cc1oc2c(c(C)cc3oc(=O)c(CC(=O)N[C@@H](CC(C)C)C(=O)O)c(C)c32)c1C | inconclusive: 28.2 µM [inhibitor, single point]
Cn1nc(C(=O)OCCN2C(=O)c3ccccc3C2=O)c2ccccc2c1=O | inconclusive: 39.8 µM [inhibitor, single point]
COc1cc([C@@H]2c3cc4c(cc3[C@@H](O)[C@@H](CO)[C@@H]2CO)OCO4)cc(OC)c1O[Si](C)(C)C(C)(C)C | inconclusive: 0.631 µM [inhibitor, full curve, poor fit]
Cc1c(CC(=O)N2CCCCC2)c(=O)oc2c(C)c(O)ccc12 | inconclusive: 39.8 µM [inhibitor, single point]
COCCOC(=O)C1=C(C)NC(C)=C(C(=O)OC(C)C)C1c1cccc([N+](=O)[O-])c1 (stereo not given) | inactive
NC(=O)c1cc(N2C(=O)C=CC2=O)ccc1Cl | inconclusive: 25.1 µM [inhibitor, partial curve]
CCCCc1nc2cc(C(=O)N3CCC(OCCOC)CC3)ccc2o1 | inconclusive: 11.2 µM [inhibitor, single point]

SMILES | Potency
COc1ccc(C2C=C(c3ccc(C)cc3)Nc3ncnn32)cc1 (stereo not given) | inconclusive: 35.5 µM [inhibitor, single point]
CC(=O)c1cc2cc(O)ccc2o1 | inconclusive: 39.8 µM [inhibitor, single point]
COc1ccccc1N1CCN(C(=O)c2ccc3c(c2)N(Cc2ccccc2)C(=O)c2ccccc2S3(=O)=O)CC1 | inactive
CN1C(C(=O)Nc2ccccn2)=C(O)c2ccccc2S1(=O)=O | inconclusive: 17.8 µM [inhibitor, single point]
Cc1cccc(N2C(=O)CSC23C(=O)N(CC(=O)NCCc2ccccc2)c2ccccc23)c1 (stereo not given) | inactive
CCOc1ccccc1C(=O)Nc1cc2c(cc1N1CCCC1)n(CC)c(=O)n2CC | inconclusive: 1 µM [inhibitor, full curve]
O=C(NCC(=O)N1CCN(c2ccccc2)CC1)c1cccs1 | inconclusive: 7.08 µM [inhibitor, single point]
Cc1ccc(OCCCn2ccnc2)cc1C | inactive
Cc1ccc(C)c(NC(=O)COC(=O)Cn2c(C)csc2=O)c1 | inactive
S=c1[nH]nc(Nc2ccccc2Cl)s1 | active: 25.1 µM
Nc1cc2sc(-c3ccc(C(=O)O)cc3)nc2cc1Cl | inconclusive: 28.2 µM [inhibitor, partial curve]
C=CCNc1nnc(SC2CC(=O)N(c3ccc(OC)cc3)C2=O)s1 (stereo not given) | inactive
O=C(c1ccc(COc2c(F)c(F)c(F)c(F)c2F)o1)N1CCN(Cc2ccc3c(c2)OCO3)CC1 | inactive
O=C(CN(Cc1ccccc1F)S(=O)(=O)c1ccc(Cl)cc1)NCCC1=CCCCC1 | inconclusive: 17.8 µM [inhibitor, partial curve, poor fit]
COc1ccccc1NC(=O)C1CCCN(S(=O)(=O)c2ccccc2)C1 (stereo not given) | inconclusive: 7.94 µM [inhibitor, full curve, poor fit]
CCCCC(=O)Nc1nn(C)c2nc3c(C)cccc3cc12 | inconclusive: 35.5 µM [inhibitor, single point]
CC(C)(C)OC(=O)N[C@@H](Cc1ccccc1)c1nnc(SCC(N)=O)o1 | inactive
Cc1nnsc1C(=O)N1CCCC(Nc2ccc(F)c(F)c2)C1 (stereo not given) | inconclusive: 3.16 µM [inhibitor, full curve]
Cc1[nH]n(-c2ccccc2)c(=O)c1/C=N/n1c(C)nc2ccccc2c1=O | inconclusive: 0.447 µM [inhibitor, single point]
COc1cccc(N2CCN(CC(=O)NC(=O)NCc3ccco3)CC2)c1 | inconclusive: 35.5 µM [inhibitor, single point]
COC(=O)c1cc(Cl)c(NC(=O)/C=C/c2ccc(OC)c(OC)c2)cc1OC | inconclusive: 39.8 µM [inhibitor, single point]
COc1cc(NC(=O)c2ccc(C(=O)c3ccccc3)cc2)cc(OC)c1OC | inconclusive: 39.8 µM [inhibitor, single point]
CC(C)OC(=O)C(CC(=O)O)NCc1ccccc1 (stereo not given) | inconclusive: 0.282 µM [inhibitor, full curve, poor fit]
Cc1cc(N)ccc1N1CCCC1 | inconclusive: 28.2 µM [inhibitor, partial curve]

SMILES | Potency
O=C1C=C(NCCc2ccccc2)C2(CCCCC2)O1 | inconclusive: 39.8 µM [inhibitor, single point]
COc1ccc2[nH]c(C)c(CCN3C(=O)C4CC=CCC4C3=O)c2c1 (stereo not given) | inactive
O=C(O)c1cc(Cl)c2c(c1)[C@@H]1C=CC[C@@H]1[C@H](c1ccc(S(=O)(=O)N3CCOCC3)cc1)N2 | inconclusive: 39.8 µM [inhibitor, single point]
COc1cc(CNC2CCCCCCC2)c(Br)cc1OCCO | inactive
CCc1nnc(NC(=O)c2n[nH]c(=O)c3ccccc23)s1 | inconclusive: 39.8 µM [inhibitor, single point]
O=C(Nc1c(C(=O)NCc2ccco2)cnn1-c1ccccc1)c1ccc(F)cc1 | inconclusive: 5.01 µM [inhibitor, full curve, poor fit]
COc1ccccc1CNC(=O)Nc1cccs1 | inactive
COC(=O)[C@H]1[C@H]2C[C@@H]3c4[nH]c5ccccc5c4CCN3C[C@H]2C[C@@H](OC(=O)c2cc(OC)c(OC)c(OC)c2)[C@@H]1OC | inconclusive: 7.08 µM [inhibitor, partial curve]
CN=c1scc(-c2ccccc2F)n1/N=C/c1ccc(O)c(O)c1O | inconclusive: 20 µM [inhibitor, partial curve]
CCOc1ccccc1NC(=O)C(=O)NCC1CCCN1CC (stereo not given) | inconclusive: 3.98 µM [inhibitor, single point]
Cc1cc(NC(=O)CN2CCN(C)CC2)no1 | inactive
COC(=O)c1c(C)c2c(c(C)c1O)OC(=O)c1c(C)c(Cl)c(O)c(Cl)c1O2 | inconclusive: 39.8 µM [inhibitor, single point]
CC(/C=N/n1c(-c2ccc(Cl)cc2)n[nH]c1=S)=C\c1ccco1 | inactive
Cc1ccc(NC(=O)CNCc2ccc(Cl)cc2Cl)cc1S(=O)(=O)N(C)C | inactive
CN1C(=O)C(C)(C)c2cc(S(=O)(=O)NCC(=O)NCc3ccccc3)ccc21 | inconclusive: 0.891 µM [inhibitor, full curve, poor fit]
Cc1nc2ccc(NC(=O)c3cc(S(=O)(=O)N(C)c4ccccc4)ccc3Cl)cc2s1 | inactive
COc1ccc([N+](=O)[O-])cc1NC(=O)Nc1ccc(OC)c(OC)c1 | inactive
Cc1ccc(S(=O)(=O)N2C(=O)CCC2C(=O)N2CCCCC2)cc1 (stereo not given) | inconclusive: 28.2 µM [inhibitor, single point]
CCCc1nnc(NC(=O)CSc2nnc3c4ccccc4n(CC)c3n2)s1 | inactive
O=C(/C=C/c1ccco1)NC(=S)Nc1ccc(N2CCOCC2)c(Cl)c1 | inactive
CC(C)Oc1ccc(C(=O)NCCc2csc(-c3cccc(F)c3)n2)cc1 | inactive
COc1ccc(OCCCCOc2ccccc2Cl)cc1 | inconclusive: 2.51 µM [inhibitor, single point]

5 entries from above, ordered by molar mass, falling:
SMILES | Potency
O=C(/C=C/c1ccco1)NC(=S)Nc1ccc(N2CCOCC2)c(Cl)c1 | inactive
CC(C)Oc1ccc(C(=O)NCCc2csc(-c3cccc(F)c3)n2)cc1 | inactive
COc1cc(/C=N\NC(=O)C2C(=O)NCC2c2ccccc2)cc(OC)c1O (stereo not given) | inconclusive: 6.31 µM [inhibitor, single point]
CCCCc1nc2cc(C(=O)N3CCC(OCCOC)CC3)ccc2o1 | inconclusive: 11.2 µM [inhibitor, single point]
CN=c1scc(-c2ccccc2F)n1/N=C/c1ccc(O)c(O)c1O | inconclusive: 20 µM [inhibitor, partial curve]

An excerpt from further up:
SMILES | Potency
CC(=O)c1c(OC(=O)c2cccc(Cl)c2)c2ccccc2n1C | inconclusive: 28.2 µM [inhibitor, single point]
CCC(C)NC(=O)COC(=O)c1csc2c1CCCC2 (stereo not given) | inconclusive: 39.8 µM [inhibitor, single point]
